No constants are given. Whether binding was seen depends on the method and setting. Some binding calls cover weakened binding; strength is not graded here.
How the values were obtained:
m4G7-scFv-Fc = assay: SPR (Biacore, 25° C.) binding check, m4G7-scFv-Fc at 100 nM
[1] = molecular target: UCART19 CAR (anti-CD19 chimeric antigen receptor with a 4G7-derived scFv, on UCART19 cells); assay: flow cytometry titration of the antibody on UCART19 cells, signal-to-noise against ug/test, upper graph
[2] = molecular target: UCART19 CAR (anti-CD19 chimeric antigen receptor with a 4G7-derived scFv, on UCART19 cells); assay: flow cytometry on primary human T cells expressing UCART19
[3] = molecular target: UCART19 CAR (anti-CD19 chimeric antigen receptor with a 4G7-derived scFv, on UCART19 cells); assay: flow cytometry, PE signal, UCART19 cells spiked into blood or in PBS
[4] = molecular target: UCART19 CAR (anti-CD19 chimeric antigen receptor with a 4G7-derived scFv, on UCART19 cells); assay: flow cytometry titration of APC-conjugated A8 on UCART19 cells, signal-to-noise against ug/test, lower graph
[5] = molecular target: UCART19 CAR (anti-CD19 chimeric antigen receptor with a 4G7-derived scFv, on UCART19 cells); assay: flow cytometry on UCART19 cells
[6] = molecular target: UCART19 CAR (anti-CD19 chimeric antigen receptor with a 4G7-derived scFv, on UCART19 cells); assay: flow cytometry titration of PE-conjugated A8 on UCART19 cells, signal-to-noise against ug/test, lower graph
[7] = molecular target: UCART19 CAR (anti-CD19 chimeric antigen receptor with a 4G7-derived scFv, on UCART19 cells); assay: flow cytometry blocking assay: fresh UCART19 cells pre-incubated with unconjugated antibody, then stained with labelled soluble CD19-hFc; blocked ligand: m14

binding (m4G7-scFv-Fc) | binding [1] | binding [2] | binding [3] | binding [4] | binding [5] | binding [6] | binding [7] | Binder
binds | binds | binds |  |  |  |  |  | E2153.1D9.B4 (antibody, V domains shown) VH: QVQLQQSGAELVRPGTSVKVSCKASGYAFTNYLIEWIKQRPGQGLEWIGVINPGSGGINYNEKFKGKATLTSDKSSSTAYMQLSSLTSDDSAVYFCARWLDYDWFAYWGQGTLVTVSA VL: DIKMTQFPSSMYASVGERVTITCKASQDINSYLSWFQQKPGKSPKTLIYRANRLVDGVPSRFSGSGSGQDYSLTISSLEYEDMGIYYCLQCDEFPFTFGGGTKLEIK
binds | binds | binds | binds |  |  |  |  | E2153.4D7.E11 (antibody, V domains shown) VH: QVQLQQSGAELVRPGTSVKVSCKASGYAFTNYLIEWVKQRPGQGLEWIGVITPGSGGSNYNEKFKGKATLTADKSSSTAYMQLSSLTSDDSAVYFCARWLDYDWFAYWGQGTLVTVSA VL: DIKMTQSPSSMYASLGERVTITCKASQDINSYLSWFQQKPGKSPKTLIYRANRLVDGVPSRFSGSGSGQDYSLTISSLEYEDMGIYYCRQCDEFPSTFGGGTKLEIK
binds | binds | binds | binds | binds | binds | binds | binds | E2153.2H8.A8 (antibody, V domains shown) VH: QVQLQQSGAELVKPGASVKVSCKAFGYTFTTYPIEWMRQNHGKSLEWIGNFHPYNDDTRYNEKFKDKAKLTVEKSSSTVYLELSRLTYDDSAVYYCTRGNDYDLYGMDYWGQGTSVTVSS VL: DIKMTQSPSSMYASLGERVTITCKASQDINTYLTWFQQKPGKSPKTLIYRANRLVDGVPSRFSGSGSGQDYSLTISSLEYEDMGIYYCLQCDDFPLTFGAGTKLELKR
binds | binds | binds |  |  |  |  |  | E2153.1C4.E2 (antibody, V domains shown) VH: QVQLQQSGAELVKPGASVKVSCKAFGYTFTTYPIEWMRQNHGKSLEWIGNFHPYNDDTRYNEKFKDKAKLTVEKSSSTVYLELSRLTYDDSAVYYCTRGNDYDLYGMDYWGQGTSVTVSS VL: DIKMTQFPSSMYASLGERVTITCKASQDINTYLTWFQQKPGKSPKTLIYRANRLVDGVPSRFSGSGSGQDYSLTISSLEYEDMGIYYCLQCDDFPLTFGAGTKLELK

Reference: patent US20200331998A1
